Reference: US20200392147

Sequences of proteins named here, by UniProt entry; tags and fusion partners are left off.
UniProt P60843, whole entry: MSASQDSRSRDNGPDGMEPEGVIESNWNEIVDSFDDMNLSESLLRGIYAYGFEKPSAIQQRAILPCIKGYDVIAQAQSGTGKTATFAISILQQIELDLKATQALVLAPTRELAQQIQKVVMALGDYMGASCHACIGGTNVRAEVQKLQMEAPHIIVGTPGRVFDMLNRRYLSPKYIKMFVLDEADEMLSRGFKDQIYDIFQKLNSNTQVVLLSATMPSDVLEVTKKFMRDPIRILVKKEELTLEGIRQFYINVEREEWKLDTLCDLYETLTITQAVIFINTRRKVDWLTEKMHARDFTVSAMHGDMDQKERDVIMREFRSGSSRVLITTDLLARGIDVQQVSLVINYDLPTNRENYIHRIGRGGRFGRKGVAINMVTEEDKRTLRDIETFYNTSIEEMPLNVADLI
UniProt P10630, whole entry: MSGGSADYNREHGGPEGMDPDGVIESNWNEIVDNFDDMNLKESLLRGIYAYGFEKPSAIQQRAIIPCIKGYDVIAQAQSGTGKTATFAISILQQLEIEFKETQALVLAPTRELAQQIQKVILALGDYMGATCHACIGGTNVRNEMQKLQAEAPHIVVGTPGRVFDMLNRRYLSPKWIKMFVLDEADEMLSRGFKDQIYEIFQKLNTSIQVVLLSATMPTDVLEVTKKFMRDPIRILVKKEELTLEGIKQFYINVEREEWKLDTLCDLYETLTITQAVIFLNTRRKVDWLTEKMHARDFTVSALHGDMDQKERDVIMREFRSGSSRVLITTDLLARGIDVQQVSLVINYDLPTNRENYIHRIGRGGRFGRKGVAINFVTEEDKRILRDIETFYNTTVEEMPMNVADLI

How the values were obtained:
[1] = target: eIF4A1 (UniProt P60843); test: FP; settings: purified recombinant protein; protein details: His6 (pET15b, E. coli BL21(DE3)); label: FAM
[2] = target: eIF4A2 (UniProt P10630); test: FP; settings: purified recombinant protein; protein details: His6 (pET15b, E. coli BL21(DE3)); label: FAM

| Sequence | binding result [1] | binding result [2] |
| --- | --- | --- |
| AAAAAAAAAAAAAAAA [poly r(A)16] | binds more weakly | binds more weakly |
| CCCCCCCCCCCCCCCC [poly r(C)16] | binds more weakly | binds more weakly |
| UCUCUCUCUCUCUCUC [poly r(UC)8] | binds more weakly | binds more weakly |

A weaker result is weaker than the reference pair of the same experiment.
